{
  "source": "patent US6632418B2",
  "about": "“Radioligands and their use for identifying potassium channel modulators” (Abbott Laboratories, priority 2001, dated 2003)",
  "test_system": "ATP-sensitive potassium channel",
  "test": "Comparison of the profile of the novel radioligand with [^3H]P1075 in membrane preparations",
  "assay_type": "binding",
  "data": [
    {"smiles": "O=C1COCC2=C1C(c1ccc(F)c([125I])c1)C1=C(CCS1(=O)=O)N2", "note": "(stereo not shown) [Example 1, 9-(4-fluoro-3-[I^125]iodophenyl)-2,3,5,9-tetrahydro-4H-pyrano[3,4-b]thieno[2,3-e]pyridin-8(7H)-one 1,1-dioxide]", "values": [
      {"measurement": "specific bound", "setting": "membrane preparations", "value": "75-90%"},
      {"measurement": "Ligand Specifically Bound", "setting": "radioligand comparison table", "value": "75%-90%"},
      {"measurement": "Specific Signal", "setting": "radioligand comparison table, radioligand concentration 5 nM ([^3H]P1075) or 0.5-1 nM ([^125I]A-312110)", "value": 6000, "unit": "cpm"},
      {"measurement": "specific signal relative to [^3H]P1075", "setting": "typical specific signal", "value": 20, "unit": "fold"}
    ]}
  ]
}
